Tested on: conscious mongrel dog
Experiment: QT-RR interval relationship (ECG) following intravenous infusion in the conscious mongrel dog
Conditions: post-dose curve versus pre-dose curve
From the text: A system for recording electrocardiogram data in accordance with the present invention is broadly shown in FIG. 6 as reference numeral 100. […] The vehicle or test compound may be administered in various ways, including but not limited to orally, intravenously, or subcutaneous.
Heart rate (RR interval) and Lead II ECG data are collected continuously on a beat-to-beat basis at a sampling rate of 1000 Hz to allow for millisecond (ms) resolution. Using the sampled data, the QT interval and preceding RR interval are measured on individual cardiac cycles using commercially available data acquisition and analysis software. The software package used in support of the data presented here was from Gould Inc. (Po-Ne-Mah) subsidiary. This software permits visual validation of the determination of end points used in the calculation of the ECG time intervals. The collection of data is not limited to any particular method. For example, ECG time intervals can be measured using a ECG strip chart recorder. Thus, both manual and electrical data collection is possible with the present invention. […]
Approximately 250 to 300 consecutive cardiac cycles are analyzed for a pre-dose period and during steady-state compound exposure. […]
The upper 95% confidence limit for the difference of the curves is determined for each of the dose-to-pre-dose comparisons. […]

Compound: Cc1cccc(CCN2CCC(C(=O)c3ccc(NS(C)(=O)=O)cc3)CC2)n1 [E-4031, Methanesulfonamide, N-[4-[[1-[2(6-methyl-2-pyridinyl)ethyl]-4-piperidinyl]carbonyl]phenyl]]
- Treatment crosses pre-dose curve: No
